The whole screen tested about 360,000 compounds, of which about 780 (0.22%) were called active. The inconclusive results got no clear call from the source; some entries with a clear call stand among them for comparison. No stated cut-off is given here; in the data, active means inhibition above about 35% (passing the limit was not always enough); inconclusive means no clear call, values can overlap the other calls.
What follows are compounds tested on Botulinum neurotoxin type F light chain protease (Clostridium botulinum) (assay: BoNT/F light chain protease inhibitors, primary screen, biochemical, flow cytometry, MLPCN library (AID 588497; further: plate controls were buffer without enzyme for full effect and enzyme alone for no effect)). Details: Multiplex microsphere protease cleavage assay, at 10 µM, active compounds read high.

**Q.** How did the inhibition turn out when `COc1ccc(N2CCN(CC(=O)Nc3ccc(C)c(C)c3)CC2)cc1` was run?
**A.** inconclusive: 29.8%

**Q.** How did the inhibition turn out when `Cc1ccc(S(=O)(=O)n2cc(CO)c3ccccc32)cc1` was run?
**A.** inconclusive: -14.3%

**Q.** For `CCOC(=O)c1c2c([nH]c(=S)c1C#N)CCCC2`, which inhibition is on record?
**A.** inconclusive: -40.4%

**Q.** How did the inhibition turn out when `OC(COc1c(F)cc(Br)cc1F)CN1CCc2ccccc2C1` (stereo not given) was run?
**A.** inconclusive: 21.6%

**Q.** With `CCOC(=O)N1CCN(C/C(Cl)=C/c2ccccc2)CC1` as the compound, how does the inhibition read?
**A.** inconclusive: 10.2%

**Q.** `N#Cc1c(-c2ccc([N+](=O)[O-])cc2)nc2n(c1=O)CCS2` was tested. Which inhibition did it give?
**A.** inactive: 3.8%

**Q.** For `CC(C)N1CC(C(=O)Nc2cc(Cl)cc(Cl)c2)CC1=O` (stereo not given), which inhibition is on record?
**A.** inconclusive: 0.5%

**Q.** `COC(=O)c1cc(S(=O)(=O)Nc2ccsc2C(=O)OC)oc1C` was tested. Which inhibition did it give?
**A.** inconclusive: 22.1%

**Q.** For `S=C(SSC(=S)N1CCOCC1)N1CCOCC1`, which inhibition is on record?
**A.** inactive: 27.2%

**Q.** With `Cc1cc(C(=O)Nc2nnc(C3CC3)s2)c(C)s1` as the compound, how does the inhibition read?
**A.** inconclusive: 6.2%

**Q.** With `Cc1cc(C)nc(Nc2ccc(N3CCOCC3)cc2)n1` as the compound, how does the inhibition read?
**A.** inactive: -33.1%

**Q.** How did the inhibition turn out when `COc1ccc(OC)c(S(=O)(=O)NC(N)=NCCc2ccccc2)c1` was run?
**A.** inactive: -0.5%

**Q.** `CCN(CC)S(=O)(=O)c1ccc(/C=C/C(=O)OCC(=O)N(C)C)cc1` was tested. Which inhibition did it give?
**A.** inactive: 0.4%

**Q.** Which inhibition does the source give for `CCOC(=O)c1sc(CS(=O)(=O)c2ccc(Cl)cc2)nc1C` here?
**A.** inconclusive: 43.1%

**Q.** `CCOc1ccccc1/C=N/N1CCN(Cc2ccccc2)CC1` was tested. Which inhibition did it give?
**A.** inconclusive: -19.6%

**Q.** For `CC(=O)N/C(=C/c1ccc2c(c1)OCO2)C(=O)NC(Cc1ccccc1)C(=O)O` (stereo not given), which inhibition is on record?
**A.** inconclusive: 13.2%

**Q.** For `Cc1cc2oc(=O)cc(CN3CCN(c4ccc(Cl)c(Cl)c4)CC3)c2cc1Cl`, which inhibition is on record?
**A.** inactive: -4.7%

**Q.** With `COc1ccc2nc(-c3ccccc3)cc(C(=O)N3CCC3)c2c1` as the compound, how does the inhibition read?
**A.** inactive: -46.9%

**Q.** Which inhibition does the source give for `COc1ccccc1NC(=O)Cc1nnc(SCC(=O)NC2=NCCS2)n1C` here?
**A.** inactive: -0.8%

**Q.** How did the inhibition turn out when `CC(=O)n1c2ccccc2c2nc3ccccc3nc21` was run?
**A.** inconclusive: -1.9%

**Q.** How did the inhibition turn out when `CN(C)S(=O)(=O)c1ccc(NC(=O)Cn2nc(-c3ccc4c(c3)OCCO4)ccc2=O)cc1` was run?
**A.** inactive: 0%

**Q.** With `CC(C)N(CC(N)=O)c1ncnc2sc(-c3ccccc3)cc12` as the compound, how does the inhibition read?
**A.** inconclusive: -8.5%

**Q.** `O=c1c2ccccc2nc(-c2ccccc2)n1O` was tested. Which inhibition did it give?
**A.** inconclusive: 2.2%

**Q.** How did the inhibition turn out when `O=C(O)c1ccccc1NC(=O)c1cc2ccccc2oc1=O` was run?
**A.** inconclusive: -8.6%

**Q.** For `Cc1cscc1NC(=O)/C=C/C(=O)O`, which inhibition is on record?
**A.** inconclusive: -36.9%

**Q.** `Cc1nc([N+](=O)[O-])c(Br)n1Cc1ccccc1` was tested. Which inhibition did it give?
**A.** inconclusive: 66.9%

**Q.** Which inhibition does the source give for `CC1CC(NC(=O)CC#N)CC(C)(C)C1` (stereo not given) here?
**A.** inconclusive: 25.6%

**Q.** `O=C(NC1(C(F)(F)F)NC(=O)N(c2ccc(F)cc2)C1=O)c1cccs1` (stereo not given) was tested. Which inhibition did it give?
**A.** inactive: -12.6%

**Q.** `O=C(CC1C(=O)NCCN1C(=O)Nc1ccc(F)cc1)Nc1ccc(F)cc1` (stereo not given) was tested. Which inhibition did it give?
**A.** inconclusive: 15.3%

**Q.** `C=CCNc1nc2cc(-c3ccc(C(=O)N4CCOCC4)cc3)sc2c(=O)n1C` was tested. Which inhibition did it give?
**A.** inactive: -4.7%

**Q.** For `Cc1c(C)c(C)c(S(=O)(=O)NCCc2ccncc2)c(C)c1C`, which inhibition is on record?
**A.** inconclusive: -5.6%

**Q.** Which inhibition does the source give for `COc1ccc(OC)c(CNC(=O)CCC(=O)N2Cc3cccc(OC)c3Oc3ncccc32)c1` here?
**A.** inactive: -0.7%

**Q.** How did the inhibition turn out when `C=C1C2=C(C(=O)N1OC)[C@@H](O)[C@@](C)(O)[C@@H](CCCCC)O2` was run?
**A.** inactive: -3.1%

**Q.** `OCCN1CCN(c2ncnc3scc(-c4ccc(F)cc4)c23)CC1` was tested. Which inhibition did it give?
**A.** inactive: -0.5%

**Q.** With `COc1ccc(NC2=NCCCCC2)cc1` as the compound, how does the inhibition read?
**A.** inconclusive: 25%

**Q.** `Cc1cc(N2CCN(c3cccc(C)c3C)CC2)nc(-c2ccccc2)n1` was tested. Which inhibition did it give?
**A.** inactive: 15%

**Q.** Which inhibition does the source give for `O=C(CCCCCN1C(=O)CCC1=O)Nc1ncn[nH]1` here?
**A.** inconclusive: -44.9%

**Q.** For `Cc1cc2[nH]c(=O)cc(-c3ccccc3)n2n1`, which inhibition is on record?
**A.** inactive: -9.9%

**Q.** How did the inhibition turn out when `COCCNC(=O)Cn1nc(-c2ccc(C)cc2)c2ccccc2c1=O` was run?
**A.** inactive: 4.7%

**Q.** `COc1ccc(C(=O)N2CC(c3ccccc3)CC2=O)cc1` (stereo not given) was tested. Which inhibition did it give?
**A.** inconclusive: 103%

**Q.** For `COc1ccc(CC(=O)NC(C)c2nnc(SCCOc3ccc(OC)cc3)n2C)cc1` (stereo not given), which inhibition is on record?
**A.** inactive: 1.5%

**Q.** With `CC(Sc1nc2c(c(=O)[nH]1)CCCC2)C(=O)Nc1ccccc1C#N` (stereo not given) as the compound, how does the inhibition read?
**A.** inactive: -6.2%

**Q.** For `Cc1ccc(S(=O)(=O)N(C)CCN(C)S(=O)(=O)c2ccc(C)cc2)cc1`, which inhibition is on record?
**A.** inactive: -1.2%

**Q.** How did the inhibition turn out when `Cc1nc(N)nc(SCc2ccc([N+](=O)[O-])cc2)c1N` was run?
**A.** inconclusive: -21.6%

**Q.** `CCN(CC)CCCN=Cc1c(O)n(-c2ccccc2C)c(=O)c2ccccc12` was tested. Which inhibition did it give?
**A.** inconclusive: 0%

**Q.** For `COc1ccc(Cc2nnc(SCC(=O)NC3(C#N)CCCCC3)n2N)cc1`, which inhibition is on record?
**A.** inconclusive: 6.7%

**Q.** `CCCC(=O)C1=C(O)C(C(=O)OC)C(C)(C)CC1=NCCc1ccccc1` (stereo not given) was tested. Which inhibition did it give?
**A.** inconclusive: 16.3%

**Q.** Which inhibition does the source give for `O=c1[nH]cnc2c1nc(NCc1ccccc1)n2C1O[C@@H](CO)[C@H](O)[C@@H]1O` (stereo not given in full) here?
**A.** inconclusive: 18.5%

**Q.** Which inhibition does the source give for `CCOc1ccccc1NC(=O)CCS(=O)(=O)c1ccc(Br)cc1` here?
**A.** inconclusive: 1%

**Q.** With `Cc1cc(S(=O)(=O)Nc2c(C)nn(C)c2C)c(Cl)cc1Cl` as the compound, how does the inhibition read?
**A.** inconclusive: 63.2%

**Q.** For `O=C(CC(c1ccccc1)c1ccccc1O)N1CCCCC1` (stereo not given), which inhibition is on record?
**A.** inconclusive: -22.6%

**Q.** How did the inhibition turn out when `CN(C(=O)C1CCCCC1)C1(C)CCS(=O)(=O)C1` (stereo not given) was run?
**A.** inconclusive: -7.1%

**Q.** For `NC(=O)C1CCN(Cc2ccc(OCc3ccccc3)cc2)CC1`, which inhibition is on record?
**A.** inconclusive: 57%

**Q.** For `C[C@H](O)[C@@H]1CN2CCc3c([nH]c4ccccc34)[C@@H]2C[C@@H]1N(C)C(=O)c1ccco1`, which inhibition is on record?
**A.** inactive: 7.3%

**Q.** How did the inhibition turn out when `O=C(O)/C=C/C(=O)Nc1ccc(Oc2ccccc2)cc1` was run?
**A.** inconclusive: -9.2%

**Q.** How did the inhibition turn out when `O=C(CN(Cc1ccco1)C(=O)CNS(=O)(=O)c1ccccc1)NCc1ccccc1` was run?
**A.** inconclusive: -4.7%

**Q.** Which inhibition does the source give for `CNC(=O)Nc1ccc2nc(C)oc2c1` here?
**A.** inconclusive: 48%

**Q.** With `CO/N=C(\c1ccccc1)c1cccnc1` as the compound, how does the inhibition read?
**A.** active: 55.8%

**Q.** With `CCOC(=O)c1ccc(NC(=O)C2CCCN(S(=O)(=O)c3ccc(F)cc3)C2)cc1` (stereo not given) as the compound, how does the inhibition read?
**A.** inactive: -4.2%

**Q.** Which inhibition does the source give for `COc1ccc(S(=O)(=O)N2CCCC2CNC(=O)C(=O)NCc2ccccc2)cc1` (stereo not given) here?
**A.** inconclusive: -90.5%

From PubChem BioAssay AID588497 (NMMLSC, 2011)
